US9029589B2, “Phenyl alkyl carbamate derivative compound and pharmaceutical composition containing the same” (Bio-Pharm Solutions Co., Ltd., priority 2011, dated 2015)

System: male mice (ICR)
Test: Muscle relaxation activity by grip strength (forelimbs)
Assay type: in vivo
Settings: intraperitoneal, 50 mg/kg administered
Method: For testing, male mice (ICR) were purchased from ORIENT BIO INC. (Korea), divided into several groups with 6 mice in each group, and were adapted for 4-5 days. The mice having the weight ranging from 19 g to 26 g were employed for the test. The pharmacological effect of the test compounds on muscle relaxation was evaluated by Rotarod test, grip strength test, and muscular force (wire hang) test. All mice were adapted to the test environment at one hour before starting the tests. The pharmacological effects of all the test compounds were evaluated by administration through peritoneal cavity of the mice (10 ul/g, bw).
A grip strength test using the test animals' forelimbs was performed using an instrument equipped with triangle ring and designed so as to easily grip with the forelimbs of experimental animals, manufactured from Ugo Basile Inc. (Ugo Basile, Model 47106, Italy). The test was conducted before and after administration of the compounds to evaluate the effects thereof. […] The mouse was made to grip the rod with its forelimbs, and its tail was pulled, where the force at which the mouse detached from the rod was recorded. The instrument indicated the force in grams. All of the mice were given 3 opportunities for test, and the 3 highest values among the test opportunities were selected and the mean value was used as the test result. This experimentation was conducted according to the method described in the reference, ‘Nevins et al. (1993) Quantitative grip strength assessment as a means of evaluating muscle relaxation in mice. Psychopharmacol. 110: 92-96’.
The results of muscle relaxation activity of the phenyl alkyl carbamate derivative compounds measured in above Experimental Examples 1 to 3 are shown in following Table 3.

| Structure (SMILES) | Grip strength: peak time of effect [h] |
| --- | --- |
| COCO[C@H](c1cccc(I)c1)[C@@H](C)OC(N)=O [Example 95, 1-(3-iodophenyl)-(R)-1-methoxymethoxypropyl-(R)-2-carbamate] | 0.5 |
| COCO[C@H](c1ccccc1I)[C@@H](C)OC(N)=O [Example 91, 1-(2-iodophenyl)-(R)-1-methoxymethoxypropyl-(R)-2-carbamate] | 0.5 |
| CO[C@@H](c1ccccc1I)[C@H](C)OC(=O)NC(C)C [Example 146, 1-(2-iodophenyl)-(S)-1-methoxypropyl-(S)-2-isopropylcarbamate] | 0.5 |
| CC(C)[C@H](OC(N)=O)[C@@H](OC(N)=O)c1ccccc1F [Example 257, 1-(2-fluorophenyl)-(S)-1-carbamoyloxy-3-methyl-butyl-(S)-2-carbamate] | 0.5 |
| CO[C@@H](c1ccccc1I)[C@@H](OC(N)=O)C(C)C [Example 159, 1-(2-iodophenyl)-(S)-1-methoxy-3-methyl-butyl-(S)-2-carbamate] | 0.5 |
| COCO[C@H](COC(N)=O)c1ccccc1I [Example 278, 1-(2-iodophenyl)-(S)-1-methoxymethoxyethyl-2-carbamate] | 0.5 |
| CC(C)[C@H](OC(N)=O)[C@@H](OC(N)=O)c1ccccc1I [Example 261, 1-(2-iodophenyl)-(S)-1-carbamoyloxy-3-methyl-butyl-(S)-2-carbamate] | 0.5 |
| CCCC[C@H](OC(N)=O)[C@@H](OC(N)=O)c1ccccc1F [Example 258, 1-(2-fluorophenyl)-(S)-1-carbamoyloxyhexyl-(S)-2-carbamate] | 0.5 |
| CC[C@H](OC(N)=O)[C@@H](OC)c1ccccc1I [Example 151, 1-(2-iodophenyl)-(S)-1-methoxybutyl-(S)-2-carbamate] | 0.5 |
| COCO[C@@H](c1ccccc1F)[C@H](C)OC(N)=O [Example 12, 1-(2-fluorophenyl)-(S)-1-methoxymethoxypropyl-(S)-2-carbamate] | 0.5 |
| COCO[C@H](c1c(Cl)cccc1Cl)[C@@H](C)OC(N)=O [Example 107, 1-(2,6-dichlorophenyl)-(R)-1-methoxymethoxypropyl-(R)-2-carbamate] | 1 |
| CC[C@H](OC(N)=O)[C@@H](OCOC)c1ccccc1I [Example 28, 1-(2-iodophenyl)-(S)-1-methoxymethoxybutyl-(S)-2-carbamate] | 1 |
| COCO[C@@H](c1c(Cl)cccc1Cl)[C@H](C)OC(N)=O [Example 64, 1-(2,6-dichlorophenyl)-(S)-1-methoxymethoxypropyl-(S)-2-carbamate] | 0.5 |
